Assay results published in doi:10.1101/767574.
No constants are given. Whether binding was seen depends on the method and setting. Binding seen in cells or lysates may run through a third protein. Some entries that bind do so weakly or less than the wild type. Where a sequence is shown, tags or fusion partners need not be part of it.

Protein sequences, listed by entry. Tags and fused reporters are not part of them.
UniProt P70338: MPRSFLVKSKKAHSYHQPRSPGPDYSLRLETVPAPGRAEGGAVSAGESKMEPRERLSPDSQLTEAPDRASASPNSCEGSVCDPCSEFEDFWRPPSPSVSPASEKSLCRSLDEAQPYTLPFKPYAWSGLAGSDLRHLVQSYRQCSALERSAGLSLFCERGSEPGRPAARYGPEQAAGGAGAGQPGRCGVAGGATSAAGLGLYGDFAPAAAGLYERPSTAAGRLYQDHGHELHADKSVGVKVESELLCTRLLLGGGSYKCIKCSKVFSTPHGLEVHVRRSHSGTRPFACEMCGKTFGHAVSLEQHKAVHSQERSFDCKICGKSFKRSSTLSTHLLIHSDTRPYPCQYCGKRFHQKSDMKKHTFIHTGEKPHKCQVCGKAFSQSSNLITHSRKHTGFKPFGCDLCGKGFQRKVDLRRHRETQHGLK

Target: recombinant GST-Gfi1 protein (UniProt P70338)
Experiment: pull-down

binding: binds
B1: Myc-tagged Atoh1 (protein, UniProt P48985 1-351)
chain: MSRLLHAEEWAEVKELGDHHRHPQPHHVPPLTPQPPATLQARDLPVYPAELSLLDSTDPRAWLTPTLQGLCTARAAQYLLHSPELGASEAAAPRDEADSQGELVRRSGCGGLSKSPGPVKVREQLCKLKGGVVVDELGCSRQRAPSSKQVNGVQKQRRLAANARERRRMHGLNHAFDQLRNVIPSFNNDKKLSKYETLQMAQIYINALSELLQTPNVGEQPPPPTASCKNDHHHLRTASSYEGGAGASAVAGAQPAPGGGPRPTPPGPCRTRFSGPASSGGYSVQLDALHFPAFEDRALTAMMAQKDLSPSLPGGILQPVQEDNSKTSPRSHRSDGEFSPHSHYSDSDEAS
